Measurements reported in PubChem BioAssay AID504808 (Drosophila RNAi Screening Center, 2011).
Test: 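Genes whose loss lifts activity of an E2F-responsive reporter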 (primary screen). Cell system: Drosophila S2 cells. Reagents: long dsRNA against Drosophila genes. Read-out: 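Firefly luciferase driven by E2F sites, normalised to Renilla luciferase on the same minimal promoter, measured by plate reader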. Reading the numbers: E2F firefly: higher = more E2F reporter activity; Renilla normaliser: higher = more normaliser reporter signal. Rule for the call: 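a knock-down counted as active when the firefly/Renilla E2F signal rose above 50%, a threshold chosen arbitrarily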.
In all, the deposit lists about 21,000 reagents; shown is a random part of those with a known target gene and a result. Over the whole deposit, 18 (0.084%) are marked active. 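Raw counts without plate normalisation, one of two replicates; the ratio scores behind the calls were not deposited.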 Reagent sequences are not shown. Not stated in the record: the amount of reagent, the time to read-out.

| E2F firefly, rep 1 | Renilla normaliser, rep 1 | activity call | gene | DRSC id |
| --- | --- | --- | --- | --- |
| 1.12e5 | 6490 | inactive | CG11458 | DRSC11666 |
| 1489 | 756 | inactive | Prp39 | DRSC15133 |
| 1.33e5 | 7116 | inactive | CecA1 | DRSC16603 |
| 91843 | 3880 | inactive | Nep2 | DRSC12126 |
| 74691 | 2971 | inactive | CG3065 | DRSC04333 |
| 1.42e5 | 5515 | inactive | B-H1 | DRSC19334 |
| 98086 | 5310 | inactive | CG34129 | DRSC15960 |
| 67894 | 3418 | inactive | mRRF1 | DRSC10421 |
| 8490 | 692 | inactive | CG9106 | DRSC20154 |
| 1.23e5 | 6937 | inactive | CG5391 | DRSC15790 |
| 77664 | 3593 | inactive | CNPYb | DRSC09845 |
| 79128 | 3561 | inactive | IleRS | DRSC11667 |
| 95618 | 3994 | inactive | Cp15 | DRSC11118 |
| 1716 | 1064 | inactive | ATPsynC | DRSC15236 |
| 1.43e5 | 5183 | inactive | fy | DRSC03533 |
| 88437 | 3815 | inactive | CG17104 | DRSC02573 |
| 90425 | 4209 | inactive | yellow-g2 | DRSC08338 |
| 55797 | 3513 | inactive | Dref | DRSC03319 |
| 99224 | 4112 | inactive | Naprt | DRSC00630 |
| 1.40e5 | 6822 | inactive | CG6951 | DRSC10755 |
| 1.02e5 | 5601 | inactive | PolA2 | DRSC16641 |
| 1.18e5 | 4728 | inactive | CG17440 | DRSC18126 |
| 54989 | 4174 | inactive | CG12071 | DRSC14471 |
| 73200 | 3430 | inactive | Ndfip | DRSC11201 |
| 95262 | 4649 | inactive | mIF3 | DRSC06290 |
| 98329 | 3943 | inactive | CdGAPr | DRSC03289 |
| 1.20e5 | 6014 | inactive | Uros2 | DRSC16505 |
| 1.70e5 | 6985 | inactive | Rack1 | DRSC03405 |
| 1.39e5 | 5457 | inactive | CG31636 | DRSC02276 |
| 1.09e5 | 4787 | inactive | EbpIII | DRSC04638 |
| 80599 | 3707 | inactive | JMJD4 | DRSC03025 |
| 1.33e5 | 6857 | inactive | CG7130 | DRSC11797 |
| 1.01e5 | 3436 | inactive | Tnpo-SR | DRSC00546 |
| 92347 | 5227 | inactive | CG43902 | DRSC17999 |
| 1.45e5 | 5260 | inactive | Hs3st-B | DRSC20067 |
| 69436 | 6738 | inactive | CG31111 | DRSC14649 |
| 1.12e5 | 3800 | inactive | CG30037 | DRSC07305 |
| 95795 | 3818 | inactive | CG7778 | DRSC03067 |
| 1.21e5 | 6347 | inactive | Adi1 | DRSC10945 |
| 1.58e5 | 6685 | inactive | CG12674 | DRSC00348 |
| 1.23e5 | 5064 | inactive | CG30378 | DRSC05071 |
| 1.06e5 | 4337 | inactive | CG9014 | DRSC01979 |
| 1.76e5 | 6221 | inactive | CG9672 | DRSC20201 |
| 1.20e5 | 5620 | inactive | CG11672 | DRSC14344 |
| 1.30e5 | 5377 | inactive | CG31380 | DRSC15688 |
| 90806 | 3306 | inactive | Dhx15 | DRSC06036 |
| 67625 | 4566 | inactive | p115 | DRSC18813 |
| 81981 | 5734 | inactive | CG15930 | DRSC18107 |
| 66725 | 4957 | inactive | CG40191 | DRSC21041 |
| 1.66e5 | 5289 | inactive | Uro | DRSC03469 |
| 1.26e5 | 5570 | inactive | CG15927 | DRSC19742 |
| 1.04e5 | 4758 | inactive | bonsai | DRSC04453 |
| 1.05e5 | 4218 | inactive | CG11019 (retired record) | DRSC02117 |
| 1.38e5 | 4249 | inactive | Svil | DRSC07981 |
| 67128 | 3674 | inactive | Svil | DRSC08296 |
| 1.03e5 | 4255 | inactive | Svil | DRSC08332 |
| 78419 | 3756 | inactive | Svil | DRSC08333 |
| 1.17e5 | 4649 | inactive | Svil | DRSC08494 |

3 entries from above, set out differently:
CG30037 [DRSC07305] → E2F firefly, rep 1: 1.12e5; Renilla normaliser, rep 1: 3800; activity call: inactive
CG7778 [DRSC03067] → E2F firefly, rep 1: 95795; Renilla normaliser, rep 1: 3818; activity call: inactive
Adi1 [DRSC10945] → E2F firefly, rep 1: 1.21e5; Renilla normaliser, rep 1: 6347; activity call: inactive
